One compound from US20150272939A1, “Identification of Small Molecule Inhibitors of Jumonji AT-Rich Interactive Domain 1A (JARID1A) and 1B (JARID1B) Histone Demethylase” (Yale University, priority 2012, published 2015) can be followed below.

Amino acid sequences for entries named in this document (tags omitted). A change or cut given only in a name is not applied to a line headed by its entry.
UniProt Q9UGL1: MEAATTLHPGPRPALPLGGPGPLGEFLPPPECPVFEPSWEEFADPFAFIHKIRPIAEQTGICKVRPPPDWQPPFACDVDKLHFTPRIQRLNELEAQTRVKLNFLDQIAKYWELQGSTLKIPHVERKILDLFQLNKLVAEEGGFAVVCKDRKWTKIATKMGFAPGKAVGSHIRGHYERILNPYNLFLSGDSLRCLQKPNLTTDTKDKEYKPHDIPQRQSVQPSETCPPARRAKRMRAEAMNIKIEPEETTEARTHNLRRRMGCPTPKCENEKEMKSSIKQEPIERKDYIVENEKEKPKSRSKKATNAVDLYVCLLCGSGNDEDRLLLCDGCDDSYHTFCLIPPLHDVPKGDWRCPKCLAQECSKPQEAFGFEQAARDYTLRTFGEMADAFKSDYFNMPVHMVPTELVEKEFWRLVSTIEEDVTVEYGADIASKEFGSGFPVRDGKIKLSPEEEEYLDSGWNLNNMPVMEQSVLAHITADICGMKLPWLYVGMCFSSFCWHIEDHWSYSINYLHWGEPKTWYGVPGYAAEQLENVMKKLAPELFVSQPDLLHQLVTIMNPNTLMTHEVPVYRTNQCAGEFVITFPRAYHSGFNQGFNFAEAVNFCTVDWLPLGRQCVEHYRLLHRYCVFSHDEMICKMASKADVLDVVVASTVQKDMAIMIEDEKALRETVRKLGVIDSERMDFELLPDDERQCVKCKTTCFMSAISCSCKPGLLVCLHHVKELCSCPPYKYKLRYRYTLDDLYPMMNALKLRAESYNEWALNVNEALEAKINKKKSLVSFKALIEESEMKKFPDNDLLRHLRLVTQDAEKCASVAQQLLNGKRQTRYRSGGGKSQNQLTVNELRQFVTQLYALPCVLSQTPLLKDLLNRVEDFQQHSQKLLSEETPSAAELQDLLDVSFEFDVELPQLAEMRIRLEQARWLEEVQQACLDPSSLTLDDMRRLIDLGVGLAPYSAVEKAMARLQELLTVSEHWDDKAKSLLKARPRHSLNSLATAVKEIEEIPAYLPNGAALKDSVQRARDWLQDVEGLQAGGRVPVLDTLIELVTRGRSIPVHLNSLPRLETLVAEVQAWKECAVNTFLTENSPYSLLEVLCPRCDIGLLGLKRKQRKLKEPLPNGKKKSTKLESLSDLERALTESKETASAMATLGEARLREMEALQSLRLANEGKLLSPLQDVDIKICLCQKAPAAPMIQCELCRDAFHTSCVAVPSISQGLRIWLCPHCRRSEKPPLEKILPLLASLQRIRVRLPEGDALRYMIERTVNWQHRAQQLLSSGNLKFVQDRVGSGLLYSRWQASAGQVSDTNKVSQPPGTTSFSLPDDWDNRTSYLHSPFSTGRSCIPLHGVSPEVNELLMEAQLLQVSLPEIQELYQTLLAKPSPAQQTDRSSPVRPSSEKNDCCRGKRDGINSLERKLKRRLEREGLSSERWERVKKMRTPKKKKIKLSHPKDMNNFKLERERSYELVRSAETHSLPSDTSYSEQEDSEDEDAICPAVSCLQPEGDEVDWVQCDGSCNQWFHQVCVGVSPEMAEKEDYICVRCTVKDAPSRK

The target of this experiment is T1, JARID1B (Homo sapiens, UniProt Q9UGL1).
T1 construct: The FLAG tagged full length JARID1B enzyme was expressed in Sf21 insect cells using FLAG-JARID1B baculoviruses; FLAG (N); made in house; host or cells: Sf21 insect cells (baculovirus)
As to the kind of experiment: FLAG-JARID1B histone demethylase assay with AlphaScreen detection (HTS and dose response).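 Also: FLAG-tagged JARID1B at 4 nM acting on a biotinylated H3K4me3 peptide, demethylation read by AlphaScreen luminescence, with hits checked against bio-H3K4me2 without enzyme.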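 As to Assay Signal (percent): compound tested at 20 µM.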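 As to Assay − Artifact Signal (percent): compound tested at 20 µM.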 The class given is biochemical. A general note: Bead proximity is the source of the signal in Alpha formats.

Where a name gives a salt, the structure may show the parent alone.

`Cc1ccccc1C(OCCN(C)C)c1ccccc1` (stereo not drawn) [YU033938, ORPHENADRINE CITRATE, reference compound]: the “Assay − Artifact Signal (percent)” value (assay signal minus artifact signal) was 56.56%. The inhibition at 20 µM (high-throughput screen, compound 20 μM, standard demethylase conditions (10 μM α-KG, 50 μM Fe (II)), read-out: Inhibitory effect (percent)) amounted to 47.9%. For the same compound, the “Assay Signal (percent)” value (validation of HTS actives, effect of compound in JARID1B AlphaScreen assay) worked out at 66.35%.
